Experimental data published in paper PMC7701097.

Key:
[1] = target: OsBRCA2 (full length) (rice (Oryza sativa)); test: two-hybrid; yeast two-hybrid (Clontech); OsBRCA2 or its BRC1-6 fragment in pGBKT7, OsRAD51A1, OsRAD51A2, OsDMC1A, OsDMC1B in pGADT7; SD-4 (-Leu/-Trp/-His/-Ade/+ X-α-gal) selection medium
[2] = target: OsBRCA2 truncation containing BRC1-6 motifs (rice (Oryza sativa)); test: as above

B1: OsDMC1A (protein, UniProt Q7GBF8 1-344)
chain: MAPSKQYSEGGQLQLMDAERIEEEEECFESIDKLISQGINSGDVKKLQDAGIYTCNGLMMHTKKSLTGIKGLSEAKVDKICEAAEKLLSQGFITGSDLLIKRKSVVRITTGSQALDKLLGGGIETLCITEAFGEFRSGKTQLAHTLCVSAQLPIHMHGGNGKVAYIDTEGTFRPERIVPIAERFGMDANAVLDNIIYARAYTYEHQYNLLLGLAAKMAEEPFRLLIVDSVIALFRVDFSGRGELAERQQKLAQMLSRLTKIAEEFNVAVYITNQVIADPGGGMFITDLKKPAGGHVLAHAATIRLMLRKGKGEQRVCKIFDAPNLPEGEAVFQVTSGGIMDAKD
[1]
  binding: binds
[2]
  binding: binds

B2: OsDMC1B (protein, UniProt Q7GBF7 1-344)
chain: MAPSKQYDEGGQLQLMDAERIEEEEECFESIDKLISQGINSGDVKKLQDAGIYTCNGLMMHTKKSLTGIKGLSEAKVDKICEAAEKLLSQGFMTGSDLLIKRKSVVRITTGSQALDELLGGGIETLCITEAFGEFRSGKTQLAHTLCVSTQLPIHMHGGNGKVAYIDTEGTFRPERIVPIAERFGMDANAVLDNIIYARAYTYEHQYNLLLGLAAKMAEEPFRLLIVDSVIALFRVDFSGRGELAERQQKLAQMLSRLTKIAEEFNVAVYITNQVIADPGGGMFITDPKKPAGGHVLAHAATIRLMLRKGKGEQRVCKIFDAPNLPEGEAVFQVTSGGIMDAKD
[1]
  binding: binds
[2]
  binding: binds

No constants are given. Whether binding was seen depends on the method and setting. A result given as binding can be weak or reduced; the word gives no strength.
